From publication PMC9135752

Sequences of proteins named here, by UniProt entry; tags and fusion partners are left off. A change or cut given only in a name is not applied to a line headed by its entry. Residues count along the entry.
UniProt Q86VE9: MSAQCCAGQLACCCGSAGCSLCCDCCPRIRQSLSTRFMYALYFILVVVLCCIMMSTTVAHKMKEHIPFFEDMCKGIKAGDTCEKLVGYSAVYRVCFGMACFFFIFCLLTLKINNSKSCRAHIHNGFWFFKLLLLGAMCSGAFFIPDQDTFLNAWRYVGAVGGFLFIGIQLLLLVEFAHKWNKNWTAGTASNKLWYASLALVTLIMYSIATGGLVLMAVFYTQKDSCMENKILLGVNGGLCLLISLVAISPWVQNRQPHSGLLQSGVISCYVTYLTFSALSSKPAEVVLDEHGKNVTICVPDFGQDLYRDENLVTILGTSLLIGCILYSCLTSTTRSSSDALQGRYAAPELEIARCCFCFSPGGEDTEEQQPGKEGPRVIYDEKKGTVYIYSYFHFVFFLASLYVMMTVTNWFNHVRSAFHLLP
UniProt P0DTC7, residues 16-121: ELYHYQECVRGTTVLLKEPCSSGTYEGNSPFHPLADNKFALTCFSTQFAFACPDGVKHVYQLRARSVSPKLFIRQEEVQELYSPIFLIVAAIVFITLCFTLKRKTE

Tests used:
[1] = target: SERINC5-HA (pBJ5-hSERINC5-HA) (human) (UniProt Q86VE9); test: co-IP
[2] = target: SARS-CoV-2 ORF7a-V5 (pCDNA SARS-CoV-2 ORF7a V5/His) (SARS-CoV-2) (UniProt P0DTC7); test: co-IP

| Substance | binding [1] | binding [2] |
| --- | --- | --- |
| SARS-CoV-2 ORF7a-V5 (pCDNA SARS-CoV-2 ORF7a V5/His) (from UniProt P0DTC7 16-121) | binds | – |
| SERINC5-HA (pBJ5-hSERINC5-HA) (from UniProt Q86VE9-4) | – | binds |

Results are given in words; binding and its absence hold for the method and conditions named. Binding seen in cells or lysates may run through a third protein. A result given as binding can be weak or reduced; the word gives no strength.
